Data from the supplement of paper PMC10849652.
This is one part of the list.

Sequences of proteins named here, by UniProt entry; tags and fusion partners are left off. A change or cut given only in a name is not applied to a line headed by its entry.
UniProt Q96S44: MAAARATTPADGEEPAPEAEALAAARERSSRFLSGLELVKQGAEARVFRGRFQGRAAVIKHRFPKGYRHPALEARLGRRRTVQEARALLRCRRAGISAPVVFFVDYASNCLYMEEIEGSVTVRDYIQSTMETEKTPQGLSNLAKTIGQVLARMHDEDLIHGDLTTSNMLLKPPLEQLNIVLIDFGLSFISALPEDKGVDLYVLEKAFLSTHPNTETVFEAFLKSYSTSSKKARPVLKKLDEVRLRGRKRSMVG
UniProt Q9NXH8: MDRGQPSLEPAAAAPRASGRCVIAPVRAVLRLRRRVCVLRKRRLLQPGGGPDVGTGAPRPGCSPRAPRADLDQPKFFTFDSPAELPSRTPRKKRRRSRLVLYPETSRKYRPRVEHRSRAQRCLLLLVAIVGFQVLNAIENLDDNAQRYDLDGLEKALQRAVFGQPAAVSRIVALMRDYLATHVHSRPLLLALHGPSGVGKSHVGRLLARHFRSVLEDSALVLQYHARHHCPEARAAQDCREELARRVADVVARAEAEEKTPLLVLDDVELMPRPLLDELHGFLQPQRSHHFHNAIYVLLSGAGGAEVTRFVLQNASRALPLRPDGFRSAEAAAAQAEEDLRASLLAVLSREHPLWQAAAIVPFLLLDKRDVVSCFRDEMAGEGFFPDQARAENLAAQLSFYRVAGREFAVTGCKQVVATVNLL
UniProt Q9BRZ2: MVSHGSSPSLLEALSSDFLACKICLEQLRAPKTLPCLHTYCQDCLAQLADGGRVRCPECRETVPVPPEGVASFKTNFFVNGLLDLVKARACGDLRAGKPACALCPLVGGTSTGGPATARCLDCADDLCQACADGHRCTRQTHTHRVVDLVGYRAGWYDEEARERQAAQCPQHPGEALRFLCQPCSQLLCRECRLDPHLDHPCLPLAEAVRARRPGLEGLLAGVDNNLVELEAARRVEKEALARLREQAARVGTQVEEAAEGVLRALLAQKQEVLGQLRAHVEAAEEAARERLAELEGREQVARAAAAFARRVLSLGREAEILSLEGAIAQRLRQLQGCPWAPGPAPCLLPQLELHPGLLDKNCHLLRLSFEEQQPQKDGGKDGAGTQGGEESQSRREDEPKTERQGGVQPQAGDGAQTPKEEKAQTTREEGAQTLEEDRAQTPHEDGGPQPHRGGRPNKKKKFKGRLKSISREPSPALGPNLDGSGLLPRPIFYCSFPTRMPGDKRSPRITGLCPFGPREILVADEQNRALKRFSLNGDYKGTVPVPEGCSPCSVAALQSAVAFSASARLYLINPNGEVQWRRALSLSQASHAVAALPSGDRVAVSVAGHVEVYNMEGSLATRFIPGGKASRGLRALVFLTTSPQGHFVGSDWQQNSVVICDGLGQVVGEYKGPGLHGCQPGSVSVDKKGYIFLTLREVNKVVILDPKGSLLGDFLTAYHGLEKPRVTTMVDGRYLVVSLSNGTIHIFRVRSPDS
UniProt Q8IUR0, whole entry, looked up: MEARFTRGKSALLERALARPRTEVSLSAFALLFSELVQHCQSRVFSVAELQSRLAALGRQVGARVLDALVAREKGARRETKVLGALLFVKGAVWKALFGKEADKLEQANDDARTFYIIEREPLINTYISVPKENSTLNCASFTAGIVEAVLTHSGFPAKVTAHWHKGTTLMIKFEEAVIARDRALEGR
UniProt P20333, whole entry, looked up: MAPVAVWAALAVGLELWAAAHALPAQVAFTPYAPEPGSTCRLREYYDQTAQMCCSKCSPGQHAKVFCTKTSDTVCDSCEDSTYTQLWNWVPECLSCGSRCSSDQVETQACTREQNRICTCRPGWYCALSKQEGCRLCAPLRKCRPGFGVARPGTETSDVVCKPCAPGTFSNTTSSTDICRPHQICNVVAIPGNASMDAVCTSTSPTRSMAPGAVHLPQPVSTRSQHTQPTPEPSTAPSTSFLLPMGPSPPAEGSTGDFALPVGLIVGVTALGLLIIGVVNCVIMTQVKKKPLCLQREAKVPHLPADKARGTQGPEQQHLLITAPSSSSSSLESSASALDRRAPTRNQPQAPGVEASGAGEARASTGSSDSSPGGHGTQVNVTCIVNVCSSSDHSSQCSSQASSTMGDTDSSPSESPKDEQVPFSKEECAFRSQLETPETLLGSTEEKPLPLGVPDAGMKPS
UniProt Q9Y3Q8: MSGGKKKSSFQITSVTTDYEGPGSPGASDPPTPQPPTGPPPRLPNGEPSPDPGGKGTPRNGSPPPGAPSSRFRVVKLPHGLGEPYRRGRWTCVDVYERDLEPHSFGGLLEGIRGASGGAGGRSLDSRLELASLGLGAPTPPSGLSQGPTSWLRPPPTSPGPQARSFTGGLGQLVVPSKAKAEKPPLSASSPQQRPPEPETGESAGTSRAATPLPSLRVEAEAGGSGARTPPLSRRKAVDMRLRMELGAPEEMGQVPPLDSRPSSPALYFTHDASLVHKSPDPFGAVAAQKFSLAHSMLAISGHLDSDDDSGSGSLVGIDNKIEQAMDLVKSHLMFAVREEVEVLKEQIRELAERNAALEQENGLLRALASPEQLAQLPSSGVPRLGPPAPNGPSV
UniProt O75648: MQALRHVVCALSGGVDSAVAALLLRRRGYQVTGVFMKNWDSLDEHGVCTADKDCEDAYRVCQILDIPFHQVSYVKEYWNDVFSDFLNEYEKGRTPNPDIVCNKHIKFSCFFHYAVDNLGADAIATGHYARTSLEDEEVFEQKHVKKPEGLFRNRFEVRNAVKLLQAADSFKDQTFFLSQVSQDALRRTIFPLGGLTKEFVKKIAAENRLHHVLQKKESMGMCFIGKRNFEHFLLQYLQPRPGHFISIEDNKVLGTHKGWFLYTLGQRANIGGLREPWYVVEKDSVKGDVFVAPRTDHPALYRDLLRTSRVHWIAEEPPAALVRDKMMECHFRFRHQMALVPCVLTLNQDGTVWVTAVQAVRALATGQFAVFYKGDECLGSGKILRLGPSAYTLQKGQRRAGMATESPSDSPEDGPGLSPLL
UniProt Q5JU69: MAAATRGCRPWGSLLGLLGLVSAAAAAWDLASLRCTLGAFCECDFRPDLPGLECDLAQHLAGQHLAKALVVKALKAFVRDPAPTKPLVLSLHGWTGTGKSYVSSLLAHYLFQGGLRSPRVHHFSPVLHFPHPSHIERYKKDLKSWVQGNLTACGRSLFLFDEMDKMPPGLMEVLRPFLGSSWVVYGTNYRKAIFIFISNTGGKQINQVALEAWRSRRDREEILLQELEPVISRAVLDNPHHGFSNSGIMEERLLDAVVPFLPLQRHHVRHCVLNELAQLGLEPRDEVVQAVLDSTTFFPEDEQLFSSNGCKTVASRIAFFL
UniProt Q15650: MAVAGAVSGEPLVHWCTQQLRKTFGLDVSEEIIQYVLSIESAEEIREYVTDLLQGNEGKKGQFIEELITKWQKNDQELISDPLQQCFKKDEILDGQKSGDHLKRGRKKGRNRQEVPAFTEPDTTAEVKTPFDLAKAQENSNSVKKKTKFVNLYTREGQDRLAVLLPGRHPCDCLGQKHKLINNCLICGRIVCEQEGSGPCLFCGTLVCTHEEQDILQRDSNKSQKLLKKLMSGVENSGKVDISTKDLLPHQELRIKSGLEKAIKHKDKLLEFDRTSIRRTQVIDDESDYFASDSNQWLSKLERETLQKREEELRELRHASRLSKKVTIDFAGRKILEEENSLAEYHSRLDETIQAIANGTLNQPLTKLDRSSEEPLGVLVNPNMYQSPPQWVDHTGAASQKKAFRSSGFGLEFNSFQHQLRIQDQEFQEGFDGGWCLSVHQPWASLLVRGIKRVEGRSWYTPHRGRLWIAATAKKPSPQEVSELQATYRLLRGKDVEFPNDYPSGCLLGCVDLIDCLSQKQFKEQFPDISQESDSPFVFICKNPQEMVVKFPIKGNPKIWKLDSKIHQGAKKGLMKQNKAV
UniProt Q5JTV8: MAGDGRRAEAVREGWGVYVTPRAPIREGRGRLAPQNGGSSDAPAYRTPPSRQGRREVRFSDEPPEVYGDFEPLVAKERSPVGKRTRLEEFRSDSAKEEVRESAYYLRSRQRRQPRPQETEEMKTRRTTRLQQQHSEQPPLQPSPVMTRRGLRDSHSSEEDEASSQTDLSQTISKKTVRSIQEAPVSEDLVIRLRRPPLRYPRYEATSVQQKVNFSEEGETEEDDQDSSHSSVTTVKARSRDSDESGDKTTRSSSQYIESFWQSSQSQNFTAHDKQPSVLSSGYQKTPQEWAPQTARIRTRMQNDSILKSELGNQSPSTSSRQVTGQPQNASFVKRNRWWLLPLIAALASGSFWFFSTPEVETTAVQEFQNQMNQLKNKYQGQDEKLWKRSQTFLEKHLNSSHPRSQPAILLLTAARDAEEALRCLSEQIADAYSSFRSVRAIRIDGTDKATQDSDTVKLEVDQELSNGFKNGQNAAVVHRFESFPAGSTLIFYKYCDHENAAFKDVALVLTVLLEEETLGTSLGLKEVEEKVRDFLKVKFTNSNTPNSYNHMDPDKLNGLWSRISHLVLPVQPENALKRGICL
UniProt O14656: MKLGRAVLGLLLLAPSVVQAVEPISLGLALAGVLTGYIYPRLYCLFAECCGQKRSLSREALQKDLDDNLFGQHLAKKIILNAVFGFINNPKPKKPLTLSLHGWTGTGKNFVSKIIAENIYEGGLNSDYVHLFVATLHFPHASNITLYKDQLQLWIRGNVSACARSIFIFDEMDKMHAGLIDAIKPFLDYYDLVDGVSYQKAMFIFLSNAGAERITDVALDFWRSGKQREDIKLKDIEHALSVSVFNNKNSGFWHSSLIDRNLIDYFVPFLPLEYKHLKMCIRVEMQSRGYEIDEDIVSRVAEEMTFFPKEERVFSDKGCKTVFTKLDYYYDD
UniProt Q9BQ61: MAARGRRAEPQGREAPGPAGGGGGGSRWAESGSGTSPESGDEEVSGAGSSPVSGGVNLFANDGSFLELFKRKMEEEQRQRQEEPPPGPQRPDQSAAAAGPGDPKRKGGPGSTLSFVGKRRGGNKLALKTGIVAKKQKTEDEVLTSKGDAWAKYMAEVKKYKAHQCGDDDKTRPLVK
UniProt Q02880: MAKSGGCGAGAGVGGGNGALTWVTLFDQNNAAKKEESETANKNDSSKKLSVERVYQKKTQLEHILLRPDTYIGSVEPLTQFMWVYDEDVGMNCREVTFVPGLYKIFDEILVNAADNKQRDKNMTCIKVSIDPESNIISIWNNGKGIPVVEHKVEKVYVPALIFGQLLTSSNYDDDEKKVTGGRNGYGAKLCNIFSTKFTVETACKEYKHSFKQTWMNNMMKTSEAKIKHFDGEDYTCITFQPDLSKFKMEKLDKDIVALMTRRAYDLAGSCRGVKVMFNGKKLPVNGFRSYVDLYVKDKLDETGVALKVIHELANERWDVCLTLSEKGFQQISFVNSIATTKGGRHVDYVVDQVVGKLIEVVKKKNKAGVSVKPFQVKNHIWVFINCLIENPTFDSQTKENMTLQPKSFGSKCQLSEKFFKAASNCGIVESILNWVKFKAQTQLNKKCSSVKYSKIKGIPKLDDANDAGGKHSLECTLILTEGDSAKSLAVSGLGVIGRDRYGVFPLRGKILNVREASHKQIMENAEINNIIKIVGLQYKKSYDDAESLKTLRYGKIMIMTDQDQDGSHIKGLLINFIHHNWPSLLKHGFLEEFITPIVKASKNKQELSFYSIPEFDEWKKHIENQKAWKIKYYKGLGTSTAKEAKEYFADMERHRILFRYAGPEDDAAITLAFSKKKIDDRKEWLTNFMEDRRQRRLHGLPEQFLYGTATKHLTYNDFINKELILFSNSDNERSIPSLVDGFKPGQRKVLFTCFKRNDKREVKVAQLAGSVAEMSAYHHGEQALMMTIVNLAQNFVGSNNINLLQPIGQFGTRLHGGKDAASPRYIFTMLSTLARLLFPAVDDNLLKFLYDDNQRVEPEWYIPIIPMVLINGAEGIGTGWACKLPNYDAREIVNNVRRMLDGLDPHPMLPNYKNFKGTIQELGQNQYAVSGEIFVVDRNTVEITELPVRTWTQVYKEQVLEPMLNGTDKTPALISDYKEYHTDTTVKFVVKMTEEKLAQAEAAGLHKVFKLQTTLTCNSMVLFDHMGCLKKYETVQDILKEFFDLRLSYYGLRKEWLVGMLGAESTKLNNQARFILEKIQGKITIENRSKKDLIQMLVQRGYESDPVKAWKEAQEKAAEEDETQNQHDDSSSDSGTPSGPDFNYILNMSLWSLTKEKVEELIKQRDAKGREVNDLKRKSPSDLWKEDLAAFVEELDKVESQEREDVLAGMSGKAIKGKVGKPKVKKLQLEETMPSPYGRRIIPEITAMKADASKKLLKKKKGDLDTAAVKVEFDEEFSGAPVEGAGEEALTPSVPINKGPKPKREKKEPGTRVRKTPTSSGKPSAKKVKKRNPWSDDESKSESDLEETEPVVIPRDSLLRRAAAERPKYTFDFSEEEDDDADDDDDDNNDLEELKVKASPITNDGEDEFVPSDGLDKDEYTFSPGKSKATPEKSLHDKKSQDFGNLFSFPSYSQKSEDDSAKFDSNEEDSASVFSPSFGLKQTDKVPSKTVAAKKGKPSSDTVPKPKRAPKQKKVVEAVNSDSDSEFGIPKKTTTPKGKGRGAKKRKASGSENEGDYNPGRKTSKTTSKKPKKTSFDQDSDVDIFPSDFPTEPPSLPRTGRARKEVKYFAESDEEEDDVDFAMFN

These targets were tested with CC1=C(C2=C(C=C1)C(=O)C3=CC=CC=C3N2CCCN)C (assay: log2 fold change, soluble protein after heating vs DMSO (PISA); higher = thermal stabilisation; K562 cells, 10 uM, 30 min; active = over 0.2 and 3.5 SD of the protein, either way, in both replicates (recomputed)).
How it was run: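 K562 cells at 2×10^6 cells/mL were given 10 μM compound for 30 min. Aliquots then went through 3 min of heating across 48°C-58°C, were pooled, and were extracted in PBS with 0.5% NP-40 at 4°C, and the supernatant after 21,000xg for 90 min was quantified by TMTpro 16plex LC-MS/MS with channel sums equalised. Thermal stability relative to control samples, from duplicates, is given as log2 fold change.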

Row | Target | log2 fold change
1 | TP53RK (UniProt Q96S44) | inactive: 0.049
2 | TOR4A (UniProt Q9NXH8) | inactive: 0.021
3 | TRIM56 (UniProt Q9BRZ2) | inactive: -0.203
4 | TRAPPC5 (UniProt Q8IUR0) | inactive: -0.004
5 | TPST2 (UniProt O60704) | inactive: 0.021
6 | TRMT13 (UniProt Q9NUP7) | inactive: -0.107
7 | TPP2 (UniProt P29144) | inactive: 0.052
8 | TNFRSF1B (UniProt P20333) | inactive: -0.089
9 | TSC22D4 (UniProt Q9Y3Q8) | inactive: -0.027
10 | TSC22D2 (UniProt O75157) | inactive: -0.069
11 | TSEN15 (UniProt Q8WW01) | inactive: 0.057
12 | TRMT6 (UniProt Q9UJA5) | inactive: -0.284
13 | TOMM22 (UniProt Q9NS69) | inactive: 0.229
14 | TRAPPC10 (UniProt P48553) | inactive: -0.029
15 | TRIM25 (UniProt Q14258) | inactive: 0.108
16 | TPM3 isoform 2 (UniProt P06753) | inactive: -0.015

Given field by field: entries from further up
TRMT13 (UniProt Q9NUP7)
  log2 fold change: inactive: -0.107
TPP2 (UniProt P29144)
  log2 fold change: inactive: 0.052
TSC22D4 (UniProt Q9Y3Q8)
  log2 fold change: inactive: -0.027

Further results follow:

Row | Target | log2 fold change
17 | TRAPPC12 (UniProt Q8WVT3) | inactive: -0.046
18 | TRMU (UniProt O75648) | inactive: -0.053
19 | TP53BP2 isoform 3 (UniProt Q13625) | inactive: 0.013
20 | TRMT11 (UniProt Q7Z4G4) | inactive: 0.016
21 | TOR1AIP2 (UniProt Q8NFQ8) | inactive: -0.011
22 | TPM3 isoform 4 (UniProt P06753) | inactive: -0.032
23 | TRPV2 (UniProt Q9Y5S1) | inactive: 0.057
24 | TPM1 (UniProt H7BYY1) | inactive: 0.025
25 | TPCN1 isoform 3 (UniProt Q9ULQ1) | inactive: 0.004
26 | TOR2A (UniProt Q5JU69) | inactive: 0.112
27 | TRIP4 (UniProt Q15650) | inactive: 0.025
28 | TOR1AIP1 isoform 3 (UniProt Q5JTV8) | inactive: -0.004
29 | TOR1A (UniProt O14656) | inactive: -0.003
30 | TPI1 (UniProt P60174) | inactive: 0.004
31 | TRIR (UniProt Q9BQ61) | inactive: -0.027
32 | TOP2B (UniProt Q02880) | inactive: -0.455
